This is one part of the list. Further columns of the screen follow, without active or inactive calls. Most of these compounds were active or inconclusive in the main read-out, so they are no random draw. The note in brackets gives the kind of curve behind each potency; many fits are weak.

The AC50 is the concentration giving half of the maximal activity seen. A low value points to greater potency.

The nature of this test: qHTS Assay for Lipid Storage Modulators in Drosophila S3 Cells.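 As to cell number change: cells counted by Cell Tracker Red CMTPX staining in the red channel.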 Conditions: BODIPY lipid droplet fluorescence, 18-24 h; for cell number change: measured here: cell count max response, cells fed with added oleic acid. The gist of the method:
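Drosophila S3 cells loaded with oleic acid (400 uM, as added) and compounds at several concentrations; lipid droplets imaged by 488-nm laser-scanning cytometry, 500–530 nm intensity and object ratio to cell channel. Percent activity normalized to 20 uM Triacsin C.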

Where [1] appears, read: measured here: lipid fluorescence (Fed channel) AC50, cells fed with added oleic acid.
The mark [2] stands for this setting: measured here: cell number channel AC50, cells fed with added oleic acid.

Consider `CCN(CC)c1ccc(NC(=O)c2ccc3c(c2)OCO3)c(C)c1`, for which the cell number change amounted to 7.73%. Also, the AC50 under setting [1] is 0.116 µM [rising, full curve, poor fit].
Regarding `O=C(Nc1ccccc1Cl)C1CCN(Cc2cnn(-c3ccccc3)c2-n2cccc2)CC1`, the cell number change came out at 37.1%. In addition, the AC50 under setting [2] is 32.6 µM [rising, single point].
For `Nc1c(C(=O)NCc2ccc3c(c2)OCO3)nnn1CC(=O)Nc1ccc(Br)cc1`, the cell number change stood at 7.58%. Besides, the AC50 under setting [1] is 4.61 µM [falling, single point].
Turning to `COc1ccc2c(c1)CC/C(=C/c1ccco1)C2=O`, the cell number change was 11.6%. Moreover, the AC50 under setting [2] is 1.64 µM [falling, partial curve, poor fit]. Moreover, the AC50 under setting [1] was 29.1 µM [rising, single point].
As for `Cc1ccc(C)c(NS(=O)(=O)c2c(C)ccc3nsnc23)c1`, the cell number change was -7.86%. For the same compound, under setting [1], the AC50 was 0.206 µM [rising, partial curve].
On to `CC(OC(=O)CC(NC(=O)c1ccccc1Cl)c1ccccc1)C(=O)Nc1cccc(Cl)c1Cl` (centres undefined), for which the cell number change amounted to 17.1%. Also, the AC50 under setting [2] was 4.11 µM [rising, partial curve]. Under setting [1], the AC50 was 0.461 µM [rising, full curve, poor fit].
As for `COc1cccc(-c2nnc(NC(=O)c3ccc(Cl)s3)o2)c1`, the cell number change was -16%. Besides, under setting [1], the AC50 was 18.4 µM [falling, single point].
On to `C/C=C/c1ccc(OCCCN2C(=O)NC(C)(C)C2=O)c(OC)c1`, for which the cell number change is -2.37%. The AC50 under setting [1] is 6.51 µM [rising, single point].
Take `O=C(/C=C\c1ccccc1OC(=O)c1ccccc1F)c1cc2ccccc2o1`: the cell number change was -40.3%. For the same compound, the AC50 under setting [2] is 5.8 µM [falling, partial curve]. Further, the AC50 under setting [1] is 2.91 µM [falling, full curve].
With `CC(C)(C)OC(=O)NOCC(=O)N(Cc1ccccc1)CC(O)COc1ccccc1` (centres undefined), the AC50 under setting [1] is 5.8 µM [falling, partial curve].
For `COc1ccc(C)cc1NS(=O)(=O)c1ccc(NC(=O)CN(c2cc([N+](=O)[O-])ccc2C)S(C)(=O)=O)cc1`, the cell number change is -18.4%. Also, under setting [1], the half-maximal activity concentration (AC50) is 23.1 µM [falling, single point].
For the compound `Cc1ccc(C(O)c2ccc(-n3ccnc3)cc2)cc1` (centres undefined), the cell number change was 9.24%. The AC50 under setting [1] was 0.731 µM [rising, partial curve].
For the compound `COc1ccc(C(=O)NNC(=O)CN2CCC(n3nnc4cc(F)ccc43)CC2)cc1`, the cell number change came to 4.41%. In addition, the AC50 under setting [1] was 10.3 µM [rising, partial curve, poor fit].
With `CC(=O)N1CCCc2cc(S(=O)(=O)N3CCCC(C(=O)NCc4ccccc4)C3)ccc21` (centres undefined), the cell number change is -14.4%. For the same compound, the half-maximal activity concentration (AC50) under setting [2] is 0.092 µM [falling, full curve, poor fit].
With `CC(=O)N1CCN(S(=O)(=O)c2cccc(C(=O)Nc3ccc4c(c3)CCC4)c2)CC1`, the cell number change was -15%. Under setting [1], the AC50 is 13 µM [falling, partial curve, poor fit].
For the compound `Cc1cc(OCC(=O)NCc2ccccn2)c2c(C)c(Cc3ccccc3)c(=O)oc2c1`, the cell number change is -20.6%. Under setting [1], the concentration at half-maximal activity (AC50) was 1.84 µM [falling, partial curve].
Consider `CC(=O)Nc1ccc(S(=O)(=O)Nc2nc3ccccc3s2)cc1`, for which the AC50 under setting [1] was 18.4 µM [falling, partial curve].
Turning to `COc1cccc(NC(=O)c2nc(S(C)(=O)=O)ncc2Cl)c1`, the cell number change was -4.44%. Also, the concentration at half-maximal activity (AC50) under setting [2] was 4.11 µM [falling, single point]. Further, the half-maximal activity concentration (AC50) under setting [1] was 0.92 µM [falling, full curve].
With `CC(=O)N1[C@H](Cc2ccccc2)C=C[C@]1(C)C(=O)NCCN1CCOCC1`, the cell number change turned out to be 17.1%.
Consider `CCc1ccc(-c2cc(C)no2)cc1S(=O)(=O)Nc1ccc(Cl)cn1`, for which the cell number change worked out at 9.73%. Moreover, under setting [1], the AC50 is 6.51 µM [falling, single point].
As to `Cn1c(COc2ccc(Cl)cc2)nnc1SCc1ncc(-c2ccccc2)o1`, the cell number change was -32.2%. Further, the AC50 under setting [2] is 13 µM [falling, partial curve]. Under setting [1], the half-maximal activity concentration (AC50) was 20.6 µM [falling, partial curve, poor fit].

These data come from PubChem BioAssay AID2685 (National Center for Advancing Translational Sciences (NCATS), 2010).
